Data taken from paper PMC9440756.
Results are given in words; binding and its absence hold for the method and conditions named. In cells and extracts the contact can be indirect. Some entries that bind do so weakly or less than the wild type.

Protein sequences, listed by entry. Tags and fused reporters are not part of them.
UniProt Q02248: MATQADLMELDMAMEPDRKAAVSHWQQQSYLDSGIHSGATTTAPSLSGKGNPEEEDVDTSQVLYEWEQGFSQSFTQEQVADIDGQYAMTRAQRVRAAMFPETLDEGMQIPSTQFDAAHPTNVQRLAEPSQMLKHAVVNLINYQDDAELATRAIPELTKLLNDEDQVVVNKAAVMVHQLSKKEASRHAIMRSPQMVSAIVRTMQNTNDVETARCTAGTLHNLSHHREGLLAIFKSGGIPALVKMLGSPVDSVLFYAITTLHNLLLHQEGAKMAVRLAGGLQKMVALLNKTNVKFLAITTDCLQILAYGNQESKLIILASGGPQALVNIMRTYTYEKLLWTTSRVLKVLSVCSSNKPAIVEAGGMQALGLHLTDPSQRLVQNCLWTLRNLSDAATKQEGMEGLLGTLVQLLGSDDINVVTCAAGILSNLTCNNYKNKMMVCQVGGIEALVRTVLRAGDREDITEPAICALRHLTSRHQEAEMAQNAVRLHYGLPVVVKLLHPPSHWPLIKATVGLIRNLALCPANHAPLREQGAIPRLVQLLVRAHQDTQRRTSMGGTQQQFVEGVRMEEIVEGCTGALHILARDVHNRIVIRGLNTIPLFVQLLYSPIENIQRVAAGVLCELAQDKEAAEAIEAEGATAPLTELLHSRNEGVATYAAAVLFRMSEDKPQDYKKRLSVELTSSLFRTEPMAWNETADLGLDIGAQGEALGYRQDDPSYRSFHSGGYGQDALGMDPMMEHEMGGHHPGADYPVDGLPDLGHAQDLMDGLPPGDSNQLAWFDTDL

Legend:
[1] = target: T1, TWIST1 (mouse (endogenous in embryonic mid and hindbrain tissue)) (UniProt P26687); test: co-IP; nuclear fraction of protein extracted from mouse embryonic hindbrain tissue (E8.5); nuclear buffer 50 mM Tris-HCl pH 8, 137.5 mM NaCl, 0.1% Triton X-100, 0.5% SDS, 10% glycerol, 5 mM EDTA; anti-TWIST1 antibodies, Protein A/G magnetic beads; western blot
T1 sequence: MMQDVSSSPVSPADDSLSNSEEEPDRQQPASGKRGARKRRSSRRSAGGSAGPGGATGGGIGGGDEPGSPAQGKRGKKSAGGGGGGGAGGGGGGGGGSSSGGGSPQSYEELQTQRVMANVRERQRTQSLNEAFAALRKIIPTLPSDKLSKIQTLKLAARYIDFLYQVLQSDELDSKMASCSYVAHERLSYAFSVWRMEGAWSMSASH

[2] = target: T1, TWIST1 (mouse (endogenous in embryonic mid and hindbrain tissue)); test: co-IP; cytosolic fraction of protein extracted from mouse embryonic hindbrain tissue (E8.5-E9.0; methods say E8.5 and E9.5); cytoplasmic buffer 50 mM Tris-HCl pH 8, 137.5 mM NaCl, 0.05% Triton X-100, 10% glycerol, 5 mM EDTA; anti-TWIST1 antibodies, Protein A/G magnetic beads; western blot

β-catenin (from UniProt Q02248 1-781) was tested, and the binding [1] was “binds weakly” and the binding [2] was “binds”.
